Source: PubChem BioAssay AID1259425 (University of Nebraska Medical Center, 2018)
Assay: 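Seek colon cancer weak points whose silencing resembles KSR1 loss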 (primary screen). Cell system: HCT116 human colon cancer cells. Reagent: siRNA pool against human genes, 50 nM siRNA. Measurement: 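mRNA of six signature genes measured together by branched-DNA assay after 50 nM siRNA pool, blank removed, divided by geometric mean of two housekeeping genes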. Direction: BNIP3L mRNA: higher = more BNIP3L transcript after knockdown.
The deposit covers about 14,000 reagents; shown is a part drawn at random. Not all columns of the deposit are shown. Reagent sequences are not shown. Not stated in the record: the time to read-out.

Depletion of CBS (GeneID 875) [SID363991408] resulted in: BNIP3L mRNA, set 1 = 0.185.
LDHA (GeneID 3939) [SID363996466] showed BNIP3L mRNA, set 1 = 0.266.
With knock-down of HSD17B10 (GeneID 3028) [SID363995471], the screen gave BNIP3L mRNA, set 1 = 0.123.
After knock-down of CCDC7 (GeneID 79741) [SID364002979] the results were BNIP3L mRNA, set 1 = 0.135.
After knock-down of LRIF1 (GeneID 55791) [SID364001016] the results were BNIP3L mRNA, set 1 = 0.139.
After knock-down of PSMD8 (GeneID 5714) [SID363993969] the results were BNIP3L mRNA, set 1 = 0.0706.
With knock-down of CDC40 (GeneID 51362) [SID363999696] the results were BNIP3L mRNA, set 1 = 0.0573.
For BLOC1S5 (GeneID 63915) [SID364005001], the values are BNIP3L mRNA, set 1 = 0.0636.
With knock-down of UBE2H (GeneID 7328) [SID363994460] the results were BNIP3L mRNA, set 1 = 0.0439.
For MDN1 (GeneID 23195) [SID363998981], the values are BNIP3L mRNA, set 1 = 0.167.
Knock-down of POLE3 (GeneID 54107) [SID364000318] resulted in: BNIP3L mRNA, set 1 = 0.183.
For MMP9 (GeneID 4318) [SID363995933] the deposit lists BNIP3L mRNA, set 1 = 0.072.
EPN1 (GeneID 29924) [SID363998443] gave BNIP3L mRNA, set 1 = 0.0865.
ZNF83 (GeneID 55769) [SID364000957] showed BNIP3L mRNA, set 1 = 0.105.
With knock-down of HACE1 (GeneID 57531) [SID364001817], the screen gave BNIP3L mRNA, set 1 = 0.171.
With knock-down of PIN4 (GeneID 5303) [SID363997047] the results were BNIP3L mRNA, set 1 = 0.0789.
Knock-down of EVI2A (GeneID 2123) [SID363998651] came out at: BNIP3L mRNA, set 1 = 0.133.
Knock-down of TLX3 (GeneID 30012) [SID364001962] came out at: BNIP3L mRNA, set 1 = 0.169.
For APOF (GeneID 319) [SID363992863], the entry reads BNIP3L mRNA, set 1 = 0.255.

No new results follow: entries from further up.
MDN1 (GeneID 23195) [SID363998981] → BNIP3L mRNA, set 1: 0.167
POLE3 (GeneID 54107) [SID364000318] → BNIP3L mRNA, set 1: 0.183
